Measured values: PubChem BioAssay AID540303 (National Center for Advancing Translational Sciences (NCATS), 2011)
Screen size: about 330,000 compounds; about 1,000 (0.3%) were called active. The shares of active, inactive and inconclusive entries below differ from those in the screen. The call rests on the fitted dose curve; in most records, active means well fitted inhibition curve with a large enough effect; inconclusive means small, poorly fitted or top-dose-only effect; inactive means no such curve, though single readings can be large or run the other way; tested in mouse RAW 264.7 cells. Where the call is inconclusive, the potency comes from a doubtful curve fit.

Assay: qHTS for Inhibitors of Cell Surface uPA Generation; further: nearly all actives have a fitted effect of over 55% in size
Settings: cell surface uPA generation assay; series mostly up to 38.3 µM
Procedure, shortened: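 Validation set in qHTS format. RAW 264.7 cells were pre-plated overnight and then exposed to compounds (up to 38.3 uM final) for 24 h at 37 C in 5% CO2, followed by a luminescent ATP-Lite measurement.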
Potency means the concentration at half of the fitted maximal effect.

Structure (SMILES)	Potency
Cc1nc2ccccn2c1C(=O)N/N=C/c1ccc([N+](=O)[O-])o1	inconclusive: 4.47 µM [inhibitor, partial curve, poor fit]
CC1(C)O[C@@H]1COc1c2ccoc2cc2oc(=O)ccc12	inconclusive: 8.91 µM [inhibitor, partial curve, poor fit]
Cc1noc(C)c1C(=O)Nc1nc2ccc(S(C)(=O)=O)cc2s1	active: 5.01 µM
O=c1oc2ccccc2nc1/C=C(\O)c1ccc(Br)cc1	inconclusive: 6.31 µM [inhibitor, partial curve]
O=C1C2CCCN2C(=O)N1CCCCN1CCN(c2cccc(Cl)c2)CC1 (configuration not stated)	active: 2.82 µM
CC(=O)N1CCN(c2ccc(NCc3ccc(C)s3)cc2)CC1	inconclusive: 6.31 µM [inhibitor, partial curve, poor fit]
Oc1[nH]c2ccccc2c1N=NC(=S)N1CCOCC1	inconclusive: 2 µM [inhibitor, full curve, poor fit]
CS(=O)(=O)c1ccc(C(=O)OCC(=O)Nc2cccnc2Cl)cc1[N+](=O)[O-]	inconclusive: 8.91 µM [inhibitor, partial curve]
COc1ccc(OC)c(/C(C)=N\NC(=O)c2cc3cc(Cl)ccc3n2C)c1	inconclusive: 14.1 µM [inhibitor, single point]
COc1ccc2c(C)cc(SCC(=O)Nc3ncc(Cl)cc3Cl)nc2c1	inactive
COc1ccc(/C=C/C(=O)Nc2cccnc2Cl)cc1	inconclusive: 12.6 µM [inhibitor, single point]
Cc1cc(C(=O)NCCCN2CCN(c3cc(Cl)ccc3C)CC2)n(-c2ccccc2)n1	inconclusive: 7.08 µM [inhibitor, single point]
Cc1nc2sc3c(c2c(=O)n1NC(=O)CCBr)CCCC3	inconclusive: 8.91 µM [inhibitor, partial curve, poor fit]
COc1ccc(N2CCN(C(=O)c3ccc4[nH]c(C)c(C)c4c3)CC2)cc1	inconclusive: 12.6 µM [inhibitor, single point]
CCC(=O)OCC(=O)C1(OC(=O)CC)[C@H](C)C[C@H]2[C@H]3[C@H]([C@@H](O)C[C@@]21C)[C@@]1(C)C=CC(=O)C=C1C[C@H]3Cl (some centres not stated)	inactive
CN1CCC(=C(c2ccc(Cl)cc2)c2ccccn2)CC1	inconclusive: 7.08 µM [inhibitor, partial curve, poor fit]
COc1ccc(NC(=O)c2cc3c(=O)n(C)c4ccccc4c3n2C)cc1OC	inconclusive: 12.6 µM [inhibitor, single point]
COc1ccc(S(=O)(=O)NCC2CCCN(Cc3cccnc3)C2)cc1 (configuration not stated)	inconclusive: 10 µM [inhibitor, partial curve, poor fit]
Cc1oc(-c2cccc(Cl)c2)nc1CN1CCCC(C(=O)NC(C)c2ccc3c(c2)OCCO3)C1 (configuration not stated)	inconclusive: 12.6 µM [inhibitor, single point]
O=S(=O)(NCc1ccc(F)cc1)c1cc(Br)ccc1Br	inconclusive: 4.47 µM [inhibitor, partial curve, poor fit]
CCC(C(=O)Nc1cc(F)ccc1F)n1nc(C)c2c(C)n(-c3ccc(C)cc3)nc2c1=O (configuration not stated)	inconclusive: 11.2 µM [inhibitor, single point]

Structure (SMILES)	Potency
CC(=O)N1CCC(=NNc2ccc(S(=O)(=O)N3CCOCC3)cc2[N+](=O)[O-])CC1	inconclusive: 31.6 µM [inhibitor, single point]
O=c1c(O)c(-c2cc(O)c(O)c(O)c2)oc2cc(O)cc(O)c12	inactive
CSc1ccccc1C(=O)N(CC1CCCO1)c1c(N)n(Cc2ccccc2)c(=O)[nH]c1=O (configuration not stated)	inactive
Cn1ccs/c1=N\C(=O)Nc1cccc(Cl)c1	inconclusive: 1.78 µM [inhibitor, full curve, poor fit]
CCOC(=O)c1c(NC(=O)C2C3CCC(O3)C2C(=O)O)sc2c1CCC(CC)C2 (configuration not stated)	inactive
CCN(C(=O)c1cnc(OC)cc1C(F)(F)F)c1ccc(Cl)cc1Cl	inactive
O=C(Cc1ccccc1)NC(NC(=O)Cc1ccccc1)c1cccc([N+](=O)[O-])c1	inconclusive: 0.708 µM [inhibitor, full curve, poor fit]
CC1CCCCC12NC(=O)N(CC(=O)Nc1cccc(S(=O)(=O)N3CCCCC3)c1)C2=O (configuration not stated)	inconclusive: 20 µM [inhibitor, single point]
COc1cc(CCC(=O)OCC(=O)Nc2cc(S(=O)(=O)N3CCOCC3)ccc2Cl)cc(OC)c1OC	inactive
COc1ccccc1CN1CC(C(=O)NCCC2=CCCCC2)CCC1=O (configuration not stated)	inactive
Fc1ccc(-c2csc(Nc3ccccn3)n2)cc1	inconclusive: 11.2 µM [inhibitor, partial curve, poor fit]
O=C(/C(=C/c1ccc(Cl)cc1)c1nc2ccccc2[nH]1)c1cccs1	inconclusive: 2 µM [inhibitor, full curve, poor fit]
CSCCC(NC(=O)COc1ccccc1)C(=O)N1CCN(c2ccccc2Cl)CC1 (configuration not stated)	inconclusive: 15.8 µM [inhibitor, single point]
Clc1ccccc1Cn1c(/C=C/c2ccco2)nc2ccccc21	inactive
Cc1nn2c(N)c(C#N)cnc2c1-c1ccccc1	inactive
O=c1c(O)cccc2cc(O)c(O)c(O)c12	inconclusive: 12.6 µM [inhibitor, single point]
COc1ccc(/C=C/C(=O)NC(=S)Nc2ccc(Br)cn2)cc1	inactive
Cc1cc(NC(=O)CSc2nnc(-c3ccc(O)cc3)o2)no1	inconclusive: 3.16 µM [inhibitor, partial curve, poor fit]
O=C(c1noc2c1CCCCC2)N1CCN(C(c2ccccc2)c2ccccc2)CC1	inactive
COc1cc(NC(=O)c2csc(N)n2)cc(C(=O)Nc2cccc(C(F)(F)F)c2)c1	inconclusive: 3.16 µM [inhibitor, partial curve]
C=C1CCN([C@@H](Cc2ccccc2)C(=O)NCCCc2ccccc2)S(=O)(=O)c2ccccc21	inconclusive: 12.6 µM [inhibitor, single point]

Four compounds picked at random from those above, as already listed:
Structure (SMILES)	Potency
O=c1c(O)c(-c2cc(O)c(O)c(O)c2)oc2cc(O)cc(O)c12	inactive
O=C1C2CCCN2C(=O)N1CCCCN1CCN(c2cccc(Cl)c2)CC1 (configuration not stated)	active: 2.82 µM
COc1ccc(N2CCN(C(=O)c3ccc4[nH]c(C)c(C)c4c3)CC2)cc1	inconclusive: 12.6 µM [inhibitor, single point]
Cc1cc(NC(=O)CSc2nnc(-c3ccc(O)cc3)o2)no1	inconclusive: 3.16 µM [inhibitor, partial curve, poor fit]
